For one substance, binding results are on record in PMC6264874, “A single class of ARF GTPase activated by several pathway-specific ARF-GEFs regulates essential membrane traffic in Arabidopsis” (PLoS Genetics, 2018).

Amino acid sequences for entries named in this document (tags omitted).
UniProt P36397: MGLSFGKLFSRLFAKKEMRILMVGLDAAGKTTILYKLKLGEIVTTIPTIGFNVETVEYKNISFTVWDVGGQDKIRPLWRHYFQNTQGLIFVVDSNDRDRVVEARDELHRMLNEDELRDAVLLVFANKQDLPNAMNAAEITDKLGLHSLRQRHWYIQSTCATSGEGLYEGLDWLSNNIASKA

No constants are given. Whether binding was seen depends on the method and setting. In cells and extracts the contact can be indirect. Some binding calls cover weakened binding; strength is not graded here. Tags and fused reporters may be left off the sequences shown.

For this experiment, the target named is T1, GNL1-Myc (Arabidopsis thaliana) (UniProt Q9FLY5).
T1 sequence: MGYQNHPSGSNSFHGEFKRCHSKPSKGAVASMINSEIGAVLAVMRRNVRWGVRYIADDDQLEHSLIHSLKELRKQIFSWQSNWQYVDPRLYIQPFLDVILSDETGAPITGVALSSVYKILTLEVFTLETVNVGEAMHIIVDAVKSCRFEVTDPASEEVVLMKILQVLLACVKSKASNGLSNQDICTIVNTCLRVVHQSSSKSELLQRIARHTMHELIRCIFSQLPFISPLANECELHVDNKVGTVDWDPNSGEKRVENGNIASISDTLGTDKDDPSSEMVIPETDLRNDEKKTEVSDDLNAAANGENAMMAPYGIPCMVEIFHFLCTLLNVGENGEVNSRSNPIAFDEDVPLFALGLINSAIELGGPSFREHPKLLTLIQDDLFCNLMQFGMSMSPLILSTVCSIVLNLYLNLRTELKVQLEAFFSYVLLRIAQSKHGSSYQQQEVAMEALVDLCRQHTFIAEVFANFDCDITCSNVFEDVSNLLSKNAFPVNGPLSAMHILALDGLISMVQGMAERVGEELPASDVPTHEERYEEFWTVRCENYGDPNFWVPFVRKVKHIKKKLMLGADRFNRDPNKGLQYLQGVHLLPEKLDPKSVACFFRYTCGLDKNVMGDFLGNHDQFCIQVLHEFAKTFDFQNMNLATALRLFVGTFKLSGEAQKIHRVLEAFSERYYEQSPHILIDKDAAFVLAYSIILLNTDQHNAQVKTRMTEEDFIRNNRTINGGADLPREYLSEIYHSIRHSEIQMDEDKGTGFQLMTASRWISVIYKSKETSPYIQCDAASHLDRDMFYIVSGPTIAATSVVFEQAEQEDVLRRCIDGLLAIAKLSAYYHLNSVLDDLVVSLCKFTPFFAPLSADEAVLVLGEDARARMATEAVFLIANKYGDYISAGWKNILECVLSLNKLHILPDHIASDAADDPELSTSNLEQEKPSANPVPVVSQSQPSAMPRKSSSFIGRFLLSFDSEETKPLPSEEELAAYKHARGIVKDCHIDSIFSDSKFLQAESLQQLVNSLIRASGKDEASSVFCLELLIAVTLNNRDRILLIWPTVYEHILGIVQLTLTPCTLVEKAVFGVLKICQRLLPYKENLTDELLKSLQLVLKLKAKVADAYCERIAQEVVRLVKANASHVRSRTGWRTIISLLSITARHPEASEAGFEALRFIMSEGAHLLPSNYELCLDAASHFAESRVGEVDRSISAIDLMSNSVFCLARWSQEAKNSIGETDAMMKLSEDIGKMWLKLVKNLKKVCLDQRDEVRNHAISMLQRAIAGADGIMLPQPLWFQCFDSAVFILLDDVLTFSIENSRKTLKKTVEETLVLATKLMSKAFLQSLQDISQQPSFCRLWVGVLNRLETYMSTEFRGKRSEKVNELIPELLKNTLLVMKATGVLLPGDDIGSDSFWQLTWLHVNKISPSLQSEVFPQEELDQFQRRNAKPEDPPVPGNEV
The experiment in a line: co-IP; protein extracts of 5-6 days old Arabidopsis seedlings expressing differently tagged ARFs and ARF-GEFs; lysis buffer 50mM Tris pH 7.5, 150mM NaCl, 2mM EDTA, 1% Triton X-100; alpha-Myc-agarose, GFP-Trap or RFP-Trap beads, 2.5-3h in the cold room; immunoblot; in some experiments with BFA (50 uM); T31N and Q71L forms induced with 20 uM estradiol for 6h. On the technique in general: A western blot detects proteins with antibodies after separation by electrophoresis.

In the case of “ARF1-YFP (ARFA1c-YFP) (from UniProt P36397 1-181)”, the binding entry is recorded as “binds”.
